Results from article doi:10.1101/2024.03.12.584565.
Where a chain is given by its changes, count along the chain named. Results are given in words; binding and its absence hold for the method and conditions named. In cells and extracts the contact can be indirect. Some entries that bind do so weakly or less than the wild type. Where a sequence is shown, tags or fusion partners need not be part of it.

Key:
[1] = target: T1, Pds5b-6D-Flag in HeLaK cells (human) (UniProt Q9NTI5); assay: co-IP
T1 sequence: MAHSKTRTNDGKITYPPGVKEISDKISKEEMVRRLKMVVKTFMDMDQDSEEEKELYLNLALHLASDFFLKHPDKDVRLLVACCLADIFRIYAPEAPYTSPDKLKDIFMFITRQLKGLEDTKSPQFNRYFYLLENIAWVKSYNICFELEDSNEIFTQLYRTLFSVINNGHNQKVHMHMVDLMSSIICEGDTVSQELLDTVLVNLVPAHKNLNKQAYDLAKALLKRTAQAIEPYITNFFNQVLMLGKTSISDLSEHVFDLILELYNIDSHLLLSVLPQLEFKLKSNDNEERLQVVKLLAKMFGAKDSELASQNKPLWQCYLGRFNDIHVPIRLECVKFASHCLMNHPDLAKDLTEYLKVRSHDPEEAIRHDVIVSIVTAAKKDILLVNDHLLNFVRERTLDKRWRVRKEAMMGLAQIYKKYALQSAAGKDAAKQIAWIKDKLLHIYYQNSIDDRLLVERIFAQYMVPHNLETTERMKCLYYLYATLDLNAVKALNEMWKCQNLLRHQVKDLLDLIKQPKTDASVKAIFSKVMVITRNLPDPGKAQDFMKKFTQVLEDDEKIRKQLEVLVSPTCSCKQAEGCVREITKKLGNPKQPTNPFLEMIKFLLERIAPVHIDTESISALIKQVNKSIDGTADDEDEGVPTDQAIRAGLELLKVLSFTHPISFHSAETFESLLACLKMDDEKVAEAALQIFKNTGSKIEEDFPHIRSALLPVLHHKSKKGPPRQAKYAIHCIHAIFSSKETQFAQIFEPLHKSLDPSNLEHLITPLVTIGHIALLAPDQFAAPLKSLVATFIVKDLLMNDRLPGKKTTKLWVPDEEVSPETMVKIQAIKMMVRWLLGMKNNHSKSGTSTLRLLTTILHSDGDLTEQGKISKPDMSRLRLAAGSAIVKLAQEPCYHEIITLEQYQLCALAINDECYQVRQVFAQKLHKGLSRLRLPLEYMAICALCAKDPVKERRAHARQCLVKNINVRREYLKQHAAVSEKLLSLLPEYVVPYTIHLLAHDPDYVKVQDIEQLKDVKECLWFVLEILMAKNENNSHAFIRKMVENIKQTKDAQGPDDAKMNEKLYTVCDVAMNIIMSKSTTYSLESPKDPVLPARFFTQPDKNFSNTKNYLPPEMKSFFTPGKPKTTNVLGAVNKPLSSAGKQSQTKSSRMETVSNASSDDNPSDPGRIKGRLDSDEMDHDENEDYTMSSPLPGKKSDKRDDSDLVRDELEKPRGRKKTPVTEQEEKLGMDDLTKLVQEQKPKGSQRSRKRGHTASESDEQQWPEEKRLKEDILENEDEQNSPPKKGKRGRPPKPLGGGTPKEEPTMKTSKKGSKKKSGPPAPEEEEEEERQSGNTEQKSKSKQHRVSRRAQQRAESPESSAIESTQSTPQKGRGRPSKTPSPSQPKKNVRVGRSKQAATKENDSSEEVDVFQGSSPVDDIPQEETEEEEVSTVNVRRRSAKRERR

[2] = target: T2, Wild type Pds5b-Flag in HeLaK cells (human) (UniProt Q9NTI5); assay: co-IP
T2 sequence: T1 sequence with D1161S, D1162S, D1166S, D1177S, D1182S, D1209S

- binding [1]: binds
- binding [2]: binds
B1: endogenous Wapl (protein, UniProt Q7Z5K2 1-1190)
chain: MTSRFGKTYSRKGGNGSSKFDEVFSNKRTTLSTKWGETTFMAKLGQKRPNFKPDIQEIPKKPKVEEESTGDPFGFDSDDESLPVSSKNLAQVKCSSYSESSEAAQLEEVTSVLEANSKISHVVVEDTVVSDKCFPLEDTLLGKEKSTNRIVEDDASISSCNKLITSDKVENFHEEHEKNSHHIHKNADDSTKKPNAETTVASEIKETNDTWNSQFGKRPESPSEISPIKGSVRTGLFEWDNDFEDIRSEDCILSLDSDPLLEMKDDDFKNRLENLNEAIEEDIVQSVLRPTNCRTYCRANKTKSSQGASNFDKLMDGTSQALAKANSESSKDGLNQAKKGGVSCGTSFRGTVGRTRDYTVLHPSCLSVCNVTIQDTMERSMDEFTASTPADLGEAGRLRKKADIATSKTTTRFRPSNTKSKKDVKLEFFGFEDHETGGDEGGSGSSNYKIKYFGFDDLSESEDDEDDDCQVERKTSKKRTKTAPSPSLQPPPESNDNSQDSQSGTNNAENLDFTEDLPGVPESVKKPINKQGDKSKENTRKIFSGPKRSPTKAVYNARHWNHPDSEELPGPPVVKPQSVTVRLSSKEPNQKDDGVFKAPAPPSKVIKTVTIPTQPYQDIVTALKCRREDKELYTVVQHVKHFNDVVEFGENQEFTDDIEYLLSGLKSTQPLNTRCLSVISLATKCAMPSFRMHLRAHGMVAMVFKTLDDSQHHQNLSLCTAALMYILSRDRLNMDLDRASLDLMIRLLELEQDASSAKLLNEKDMNKIKEKIRRLCETVHNKHLDLENITTGHLAMETLLSLTSKRAGDWFKEELRLLGGLDHIVDKVKECVDHLSRDEDEEKLVASLWGAERCLRVLESVTVHNPENQSYLIAYKDSQLIVSSAKALQHCEELIQQYNRAEDSICLADSKPLPHQNVTNHVGKAVEDCMRAIIGVLLNLTNDNEWGSTKTGEQDGLIGTALNCVLQVPKYLPQEQRFDIRVLGLGLLINLVEYSARNRHCLVNMETSCSFDSSICSGEGDDSLRIGGQVHAVQALVQLFLERERAAQLAESKTDELIKDAPTTQHDKSGEWQETSGEIQWVSTEKTDGTEEKHKKEEEDEELDLNKALQHAGKHMEDCIVASYTALLLGCLCQESPINVTTVREYLPEGDFSIMTEMLKKFLSFMNLTCAVGTTGQKSISRVIEYLEHC
